Results deposited as PubChem BioAssay AID1259254 (NCATS, 2017).

- Test: 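Finding genes that stop cells copying their DNA twice in one cycle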 (primary screen)
- System: human HCT116 colorectal cancer cells
- Knock-down reagent: single siRNA against human genes
- Timing: 3 days
- Detection: 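Nuclei stained with Hoechst and imaged; cell-cycle phase assigned by DNA content; G2 share scaled per plate, non-targeting siRNA 0%, GMNN siRNA 100%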
- Scale: G2 robust z-score: higher = more G2 cells, more excess DNA replication
- Hit rule: 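An siRNA counts as active if its G2 robust z-score lies at least 5 MADs above the screen median; here such calls match roughly 38% of GMNN control or more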
The whole screen tested about 59,000 reagents; shown is a part drawn at random. About 1,550 of them (2.6%) count as active. 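G2 share is only a proxy for re-replication; each gene was hit by three separate siRNAs, and active genes were retested.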 Unmarked entries are inactive. The numbers tell different reagents against one gene apart. Further read-outs or replicates are left out here. Not given: the amount of reagent.

{"target gene":"OR14J1","siRNA no.":1,"G2 robust z-score":0.427}
{"target gene":"OR14J1","siRNA no.":2,"G2 robust z-score":-0.731}
{"target gene":"OR14J1","siRNA no.":3,"G2 robust z-score":-0.784}
{"target gene":"GALK1","siRNA no.":1,"G2 robust z-score":-0.718}
{"target gene":"GALK1","siRNA no.":2,"G2 robust z-score":0.237}
{"target gene":"GALK1","siRNA no.":3,"G2 robust z-score":0.186}
{"target gene":"GALT","siRNA no.":1,"G2 robust z-score":"6.65 (active)"}
{"target gene":"GALT","siRNA no.":2,"G2 robust z-score":-1.14}
{"target gene":"GALT","siRNA no.":3,"G2 robust z-score":-0.289}
{"target gene":"PTCD2","siRNA no.":1,"G2 robust z-score":-0.0627}
{"target gene":"PTCD2","siRNA no.":2,"G2 robust z-score":-0.33}
{"target gene":"PTCD2","siRNA no.":3,"G2 robust z-score":-0.666}
{"target gene":"ANKRD60","siRNA no.":1,"G2 robust z-score":-0.686}
{"target gene":"ANKRD60","siRNA no.":2,"G2 robust z-score":0.15}
{"target gene":"ANKRD60","siRNA no.":3,"G2 robust z-score":-0.335}

Looked up above.
GALK1 #2, G2 robust z-score = 0.237
GALT #2, G2 robust z-score = -1.14
For “G2 robust z-score”, GALT #1 reads 6.65 (active)
Result for PTCD2 #2 under “G2 robust z-score”: -0.33

The listing continues.
{"target gene":"YWHAB","siRNA no.":1,"G2 robust z-score":-0.585}
{"target gene":"YWHAB","siRNA no.":2,"G2 robust z-score":"7.77 (active)"}
{"target gene":"YWHAB","siRNA no.":3,"G2 robust z-score":-0.644}
{"target gene":"SLC38A2","siRNA no.":1,"G2 robust z-score":0.618}
{"target gene":"SLC38A2","siRNA no.":2,"G2 robust z-score":-0.729}
{"target gene":"SLC38A2","siRNA no.":3,"G2 robust z-score":-0.936}
{"target gene":"HNMT","siRNA no.":1,"G2 robust z-score":-0.31}
{"target gene":"HNMT","siRNA no.":2,"G2 robust z-score":1.68}
{"target gene":"HNMT","siRNA no.":3,"G2 robust z-score":-1.08}
